These are yes or no findings as the source states them, for the method shown. Binding seen in cells or lysates may run through a third protein. Binding can be weak; no strength is given. Sequences can lack the tags named with a protein.

This assay has as its target T1, ITFG1-Myc (human LINKIN) (human) (UniProt Q8TB96).
T1 sequence: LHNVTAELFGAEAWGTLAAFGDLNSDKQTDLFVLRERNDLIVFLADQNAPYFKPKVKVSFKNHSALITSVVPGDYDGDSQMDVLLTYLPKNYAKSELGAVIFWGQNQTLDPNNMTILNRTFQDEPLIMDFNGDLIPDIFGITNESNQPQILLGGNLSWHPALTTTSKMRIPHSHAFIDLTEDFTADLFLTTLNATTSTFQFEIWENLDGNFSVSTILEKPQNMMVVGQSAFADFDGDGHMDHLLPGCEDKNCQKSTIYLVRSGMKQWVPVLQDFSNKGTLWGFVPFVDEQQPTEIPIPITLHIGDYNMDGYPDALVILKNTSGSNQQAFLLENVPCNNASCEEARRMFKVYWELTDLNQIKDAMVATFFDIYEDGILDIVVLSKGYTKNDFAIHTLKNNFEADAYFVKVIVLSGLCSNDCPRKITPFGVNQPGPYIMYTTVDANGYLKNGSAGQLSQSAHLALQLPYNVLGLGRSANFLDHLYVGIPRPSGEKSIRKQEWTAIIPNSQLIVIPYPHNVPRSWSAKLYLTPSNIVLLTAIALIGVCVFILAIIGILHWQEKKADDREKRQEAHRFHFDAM
Description: co-IP; Myc-beads immunoprecipitation from ITFG1-Myc-transfected and non-transfected HEK 293T cells; Western blot with antibodies against RUVBL1, RUVBL2, α-tubulin, β-tubulin and β-actin. Background: A western blot detects proteins with antibodies after separation by electrophoresis.

As for “α-tubulin (human (endogenous in HEK 293T))”, the binding result is on record as “binds”.
